Measurements reported in PubChem BioAssay AID1259254 (NCATS, 2017).

- Test: 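Finding genes that stop cells copying their DNA twice in one cycle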 (primary screen)
- Cell system: human HCT116 colorectal cancer cells
- Reagents: single siRNA against human genes
- Duration: 3 days
- Measured: 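Imaged Hoechst DNA stain sorts each cell into a cycle phase by DNA amount; per plate, G2 fraction set to 0% for non-targeting and 100% for GMNN siRNA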
- Scale: G2 robust z-score and G2 cells, % of GMNN control: higher = more G2 cells, more excess DNA replication
- Hit rule: 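An siRNA counts as active if its G2 robust z-score lies at least 5 MADs above the screen median; here such calls match roughly 38% of GMNN control or more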
Shown is one part, drawn at random, of about 59,000 deposited reagents. Over the whole deposit, about 1,550 (2.6%) are marked active. 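G2 share is only a proxy for re-replication; each gene was hit by three separate siRNAs, and active genes were retested.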 Not all columns of the deposit are shown. Reagent sequences are not shown. The record does not give: the amount of reagent.

The first 3 entries as a preview:
{"gene symbol":"CCDC73 (coiled-coil domain containing 73)","PubChem SID":"SID160768249","G2 robust z-score":0.136,"G2 cells, % of GMNN control":3.93,"Call":"inactive"}
{"gene symbol":"CCDC73 (coiled-coil domain containing 73)","PubChem SID":"SID160768250","G2 robust z-score":-1.05,"G2 cells, % of GMNN control":-4.43,"Call":"inactive"}
{"gene symbol":"CCDC73 (coiled-coil domain containing 73)","PubChem SID":"SID160768251","G2 robust z-score":-0.656,"G2 cells, % of GMNN control":-1.65,"Call":"inactive"}

Results, from the start:
{"gene symbol":"CCDC73 (coiled-coil domain containing 73)","PubChem SID":"SID160768249","G2 robust z-score":0.136,"G2 cells, % of GMNN control":3.93,"Call":"inactive"}
{"gene symbol":"CCDC73 (coiled-coil domain containing 73)","PubChem SID":"SID160768250","G2 robust z-score":-1.05,"G2 cells, % of GMNN control":-4.43,"Call":"inactive"}
{"gene symbol":"CCDC73 (coiled-coil domain containing 73)","PubChem SID":"SID160768251","G2 robust z-score":-0.656,"G2 cells, % of GMNN control":-1.65,"Call":"inactive"}
{"gene symbol":"VEGFD (vascular endothelial growth factor D)","PubChem SID":"SID160765747","G2 robust z-score":2.04,"G2 cells, % of GMNN control":17.4,"Call":"inactive"}
{"gene symbol":"VEGFD (vascular endothelial growth factor D)","PubChem SID":"SID160765757","G2 robust z-score":0.303,"G2 cells, % of GMNN control":5.1,"Call":"inactive"}
{"gene symbol":"VEGFD (vascular endothelial growth factor D)","PubChem SID":"SID160765765","G2 robust z-score":-0.66,"G2 cells, % of GMNN control":-1.68,"Call":"inactive"}
{"gene symbol":"RPSAP9 (ribosomal protein SA pseudogene 9)","PubChem SID":"SID160770946","G2 robust z-score":3,"G2 cells, % of GMNN control":24.1,"Call":"inactive"}
{"gene symbol":"RPSAP9 (ribosomal protein SA pseudogene 9)","PubChem SID":"SID160770949","G2 robust z-score":1.86,"G2 cells, % of GMNN control":16,"Call":"inactive"}
{"gene symbol":"RPSAP9 (ribosomal protein SA pseudogene 9)","PubChem SID":"SID160770950","G2 robust z-score":-0.75,"G2 cells, % of GMNN control":-2.31,"Call":"inactive"}
{"gene symbol":"TMEM41B (transmembrane protein 41B)","PubChem SID":"SID160767664","G2 robust z-score":6.75,"G2 cells, % of GMNN control":50.4,"Call":"active"}
{"gene symbol":"TMEM41B (transmembrane protein 41B)","PubChem SID":"SID160767665","G2 robust z-score":3.92,"G2 cells, % of GMNN control":30.5,"Call":"inactive"}
{"gene symbol":"TMEM41B (transmembrane protein 41B)","PubChem SID":"SID160767666","G2 robust z-score":1.04,"G2 cells, % of GMNN control":10.3,"Call":"inactive"}
{"gene symbol":"YIF1B","PubChem SID":"SID160753721","G2 robust z-score":0.582,"G2 cells, % of GMNN control":7.06,"Call":"inactive"}
{"gene symbol":"YIF1B","PubChem SID":"SID160753722","G2 robust z-score":0.424,"G2 cells, % of GMNN control":5.95,"Call":"inactive"}
{"gene symbol":"YIF1B","PubChem SID":"SID160753723","G2 robust z-score":0.492,"G2 cells, % of GMNN control":6.43,"Call":"inactive"}
{"gene symbol":"YIF1B","PubChem SID":"SID160768320","G2 robust z-score":-0.877,"G2 cells, % of GMNN control":-3.21,"Call":"inactive"}
{"gene symbol":"YIF1B","PubChem SID":"SID160768321","G2 robust z-score":-0.529,"G2 cells, % of GMNN control":-0.752,"Call":"inactive"}
{"gene symbol":"YIF1B","PubChem SID":"SID160768322","G2 robust z-score":-0.18,"G2 cells, % of GMNN control":1.7,"Call":"inactive"}
{"gene symbol":"VAMP3 (vesicle associated membrane protein 3)","PubChem SID":"SID160721984","G2 robust z-score":1.6,"G2 cells, % of GMNN control":14.2,"Call":"inactive"}
{"gene symbol":"VAMP3 (vesicle associated membrane protein 3)","PubChem SID":"SID160721985","G2 robust z-score":-0.47,"G2 cells, % of GMNN control":-0.338,"Call":"inactive"}
{"gene symbol":"VAMP3 (vesicle associated membrane protein 3)","PubChem SID":"SID160735213","G2 robust z-score":0.665,"G2 cells, % of GMNN control":7.64,"Call":"inactive"}
{"gene symbol":"BDNF (brain derived neurotrophic factor)","PubChem SID":"SID160725175","G2 robust z-score":0.774,"G2 cells, % of GMNN control":8.42,"Call":"inactive"}
{"gene symbol":"BDNF (brain derived neurotrophic factor)","PubChem SID":"SID160725243","G2 robust z-score":-1.65,"G2 cells, % of GMNN control":-8.67,"Call":"inactive"}
{"gene symbol":"BDNF (brain derived neurotrophic factor)","PubChem SID":"SID160725313","G2 robust z-score":1.94,"G2 cells, % of GMNN control":16.6,"Call":"inactive"}
{"gene symbol":"PDAP1 (PDGFA associated protein 1)","PubChem SID":"SID160730762","G2 robust z-score":-0.624,"G2 cells, % of GMNN control":-1.43,"Call":"inactive"}
{"gene symbol":"PDAP1 (PDGFA associated protein 1)","PubChem SID":"SID160730769","G2 robust z-score":0.0445,"G2 cells, % of GMNN control":3.28,"Call":"inactive"}
{"gene symbol":"PDAP1 (PDGFA associated protein 1)","PubChem SID":"SID160730778","G2 robust z-score":-0.689,"G2 cells, % of GMNN control":-1.88,"Call":"inactive"}
{"gene symbol":"TDRD12 (tudor domain containing 12)","PubChem SID":"SID160754040","G2 robust z-score":-0.257,"G2 cells, % of GMNN control":1.16,"Call":"inactive"}
{"gene symbol":"TDRD12 (tudor domain containing 12)","PubChem SID":"SID160754041","G2 robust z-score":1.92,"G2 cells, % of GMNN control":16.5,"Call":"inactive"}
{"gene symbol":"TDRD12 (tudor domain containing 12)","PubChem SID":"SID160754042","G2 robust z-score":0.0179,"G2 cells, % of GMNN control":3.09,"Call":"inactive"}
